The results in this text go back to paper PMC3720665.

Chains of the proteins cited; added tags and fusions are not shown.
UniProt Q9NXR7: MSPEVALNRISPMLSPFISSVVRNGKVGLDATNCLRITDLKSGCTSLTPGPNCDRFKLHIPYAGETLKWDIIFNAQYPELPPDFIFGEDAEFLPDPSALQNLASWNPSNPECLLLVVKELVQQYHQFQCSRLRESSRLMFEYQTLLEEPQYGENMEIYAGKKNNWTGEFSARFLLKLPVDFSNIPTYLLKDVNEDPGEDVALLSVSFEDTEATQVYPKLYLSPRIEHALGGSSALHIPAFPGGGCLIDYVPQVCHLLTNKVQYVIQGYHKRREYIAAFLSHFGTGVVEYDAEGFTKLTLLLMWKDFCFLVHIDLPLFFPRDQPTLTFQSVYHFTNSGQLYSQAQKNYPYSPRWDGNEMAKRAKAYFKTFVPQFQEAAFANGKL
UniProt P07355: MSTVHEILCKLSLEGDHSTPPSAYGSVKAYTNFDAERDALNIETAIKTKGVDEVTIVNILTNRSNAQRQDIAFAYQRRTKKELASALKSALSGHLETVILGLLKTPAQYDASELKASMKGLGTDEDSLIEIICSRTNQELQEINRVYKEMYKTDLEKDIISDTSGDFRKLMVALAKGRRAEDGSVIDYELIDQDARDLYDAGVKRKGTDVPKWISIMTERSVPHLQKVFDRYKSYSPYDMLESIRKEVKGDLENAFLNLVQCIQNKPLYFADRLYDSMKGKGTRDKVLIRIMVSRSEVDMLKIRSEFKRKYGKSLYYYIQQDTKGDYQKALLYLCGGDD

These are yes or no findings as the source states them, for the method shown. Binding seen in cells or lysates may run through a third protein. Some results given as binding are weak or reduced against the parent protein; the word gives no strength.

The target of this experiment is BRE (human (endogenous in HUCPV cells)) (UniProt Q9NXR7). Briefly: co-IP; endogenous BRE immunoprecipitated from HUCPV cell lysates (Ctl-siRNA and BRE-siRNA treated cells) with a monoclonal BRE antibody on Sepharose beads overnight; lysis buffer 50 mM Tris pH 8.0, 150 mM NaCl, 1% NP-40, 0.5% sodium deoxycholate; Western blot for BRE, actin and ANXA2.

Consider annexin A2 (from UniProt P07355 1-339), for which the binding entry is given as “binds”.
